In article PMC5688200, “Overexpression of the transcription factor NF-YC9 confers abscisic acid hypersensitivity in Arabidopsis”:
No constants are given. Whether binding was seen depends on the method and setting. For part of these data: In cells and extracts the contact can be indirect. Some results given as binding are weak or reduced against the parent protein; the word gives no strength. Sequences can lack the tags named with a protein.

Columns and labels:
[1] = target: T1, ABA-…5 (ABI5) fused to the GAL4 binding domain (BD-ABI5) (Arabidopsis thaliana) (UniProt Q9SJN0); test: two-hybrid; GAL4 system (Clontech), yeast strain AH109; growth on SD-4 medium (lacking Leu, Trp, His, Ade), 5-7 days at 30 °C
T1 sequence: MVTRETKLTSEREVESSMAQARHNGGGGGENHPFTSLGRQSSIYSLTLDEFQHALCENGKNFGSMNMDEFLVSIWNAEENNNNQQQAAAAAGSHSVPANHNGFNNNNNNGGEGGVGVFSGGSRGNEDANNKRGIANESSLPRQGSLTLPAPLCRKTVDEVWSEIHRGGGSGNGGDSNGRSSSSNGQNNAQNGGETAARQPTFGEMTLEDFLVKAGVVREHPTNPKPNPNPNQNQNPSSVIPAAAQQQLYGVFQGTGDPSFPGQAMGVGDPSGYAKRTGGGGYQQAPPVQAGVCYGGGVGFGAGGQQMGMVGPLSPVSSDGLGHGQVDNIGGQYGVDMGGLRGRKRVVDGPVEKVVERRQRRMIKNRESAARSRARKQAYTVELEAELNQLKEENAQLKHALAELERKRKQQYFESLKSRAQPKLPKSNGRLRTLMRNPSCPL

[2] = target: T2, ABI5-NLuc (Arabidopsis thaliana) (UniProt Q9SJN0); test: split reporter; luciferase complementation imaging (LCI) in N. benthamiana leaves after Agrobacterium infiltration; luminescence with 0.5 mM luciferin, CCD imaging
T2 sequence: T1 sequence

[3] = target: T3, ABI5-nYFP (Arabidopsis thaliana) (UniProt Q9SJN0); test: split reporter; BiFC (split YFP) in Arabidopsis Col-0 protoplasts; confocal microscopy
T3 sequence: T1 sequence

B1: NF-YC9 fused with the GAL4 activation domain (AD-NF-YC9) (protein, UniProt Q8L4B2 1-231)
chain: MDQQDHGQSGAMNYGTNPYQTNPMSTTAATVAGGAAQPGQLAFHQIHQQQQQQQLAQQLQAFWENQFKEIEKTTDFKNHSLPLARIKKIMKADEDVRMISAEAPVVFARACEMFILELTLRSWNHTEENKRRTLQKNDIAAAVTRTDIFDFLVDIVPREDLRDEVLGSIPRGTVPEAAAAGYPYGYLPAGTAPIGNPGMVMGNPGGAYPPNPYMGQPMWQQQAPDQPDQEN
- binding [1]: binds

B2: NF-YC9-CLuc (protein, UniProt Q8L4B2 1-231)
chain: B1 chain
- binding [2]: binds

B3: cYFP-NF-YC9 (protein, UniProt Q8L4B2 1-231)
chain: B1 chain
- binding [3]: binds
